For the assay, the target named is T1, YFP:Kin-12F (full length, dexamethasone-induced in Arabidopsis) (Arabidopsis thaliana) (UniProt F4JDI6).
T1 sequence: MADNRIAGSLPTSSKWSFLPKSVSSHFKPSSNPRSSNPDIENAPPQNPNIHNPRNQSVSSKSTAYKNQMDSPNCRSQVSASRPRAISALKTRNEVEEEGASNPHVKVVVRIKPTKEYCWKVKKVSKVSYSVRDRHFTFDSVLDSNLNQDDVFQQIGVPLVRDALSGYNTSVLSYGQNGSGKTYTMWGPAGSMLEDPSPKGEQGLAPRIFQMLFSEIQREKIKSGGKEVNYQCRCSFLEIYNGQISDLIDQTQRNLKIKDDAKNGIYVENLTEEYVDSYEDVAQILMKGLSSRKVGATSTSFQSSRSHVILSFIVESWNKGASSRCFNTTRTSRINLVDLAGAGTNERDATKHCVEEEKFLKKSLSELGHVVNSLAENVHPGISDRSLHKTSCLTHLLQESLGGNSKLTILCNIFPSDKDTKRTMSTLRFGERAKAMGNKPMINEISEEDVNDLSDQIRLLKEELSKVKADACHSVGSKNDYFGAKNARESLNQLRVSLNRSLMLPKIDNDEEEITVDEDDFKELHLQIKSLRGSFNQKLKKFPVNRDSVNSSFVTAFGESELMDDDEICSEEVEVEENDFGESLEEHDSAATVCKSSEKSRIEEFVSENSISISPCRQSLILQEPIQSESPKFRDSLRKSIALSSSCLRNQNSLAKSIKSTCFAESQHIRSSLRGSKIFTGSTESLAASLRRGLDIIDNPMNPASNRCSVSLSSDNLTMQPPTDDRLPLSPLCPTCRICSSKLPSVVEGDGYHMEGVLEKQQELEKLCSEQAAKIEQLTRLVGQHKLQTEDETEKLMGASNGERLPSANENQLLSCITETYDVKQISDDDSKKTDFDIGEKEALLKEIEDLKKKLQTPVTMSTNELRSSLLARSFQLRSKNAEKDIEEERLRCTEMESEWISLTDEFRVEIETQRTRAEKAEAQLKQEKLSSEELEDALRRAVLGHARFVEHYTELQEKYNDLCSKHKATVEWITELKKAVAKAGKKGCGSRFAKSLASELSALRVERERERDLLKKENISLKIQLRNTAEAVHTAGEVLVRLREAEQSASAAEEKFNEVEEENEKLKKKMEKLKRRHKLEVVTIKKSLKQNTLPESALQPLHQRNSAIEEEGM
In words: co-IP.

No constants are given. Whether binding was seen depends on the method and setting. Binding seen in cells or lysates may run through a third protein. Some binding calls cover weakened binding; strength is not graded here. Where a sequence is shown, tags or fusion partners need not be part of it.

B1: mCherry:RAB-A2a (p35S::mCherry:RAB-A2a in Arabidopsis) (protein, UniProt O04486 1-217)
chain: MARRPDEEYDYLFKVVLIGDSGVGKSNLLSRFTRNEFCLESKSTIGVEFATRTLQVEGRTVKAQIWDTAGQERYRAITSAYYRGALGALLVYDVTKPTTFENVSRWLKELRDHADSNIVIMLIGNKTDLKHLRAVATEDAQSYAEKEGLSFIETSALEALNVEKAFQTILSEVYRIISKKSISSDQTTANANIKEGQTIDVAATSESNAKKPCCSSS
Take B1: the binding result was “binds”.

The values are drawn from doi:10.1101/2024.10.11.617818.
